Values of other authors in patent US11319368B2, “Treatment of hepatotoxicity with IL-11 antibody” (Singapore Health Services PTE LTD., priority 2019, dated 2022).
For at least one compound, name, drawing or mass did not settle the structure.

Test system: rheumatoid synovial cells
Settings: cited from earlier work

C[C@@H]1C[C@H]2[C@@H]3CCC4=CC(=O)C=C[C@]4(C)[C@@]3(F)[C@@H](O)C[C@]2(C)[C@@]1(O)C(=O)CO [dexamethasone]
expression of IL-11: reduction in the expression of IL-11
